Test results taken from patent publication US8013137B2, “Modified enteropeptidase protein” (National University Corporation Hokkaido University, priority 2006, dated 2011).
Positions count from the first letter of the chain named. Numbers in names are those of the source. At least one read-out could not be matched to a standard name with certainty.

B1: EP-1: recombinant serine protease domain of Medaka (Oryzias latipes) enteropeptidase-1, wild type, SEQ ID NO: 2 (protein)
chain: VVGGVNAEKGAWPWMVSLHWRGRHGCGASLIGRDWLLTAAHCVYGKNTHLQYWSAVLGLHAQSSMNSQEVQIRQVDRIIINKNYNRRTKEADIAMMHLQQPVNFTEWVLPVCLASEDQHFPAGRRCFIAGWGRDAEGGSLPDILQEAEVPLVDQDECQRLLPEYTFTSSMLCAGYPEGGVDSCQGDSGGPLMCLEDARWTLIGVTSFGVGCGRPERPGAYARVSAFTSWIAETRRSSFSDLD
modifications: Oryzias latipes
B2: E173A: EP-1 with E173A mutation, SEQ ID NO: 4 (protein)
chain: B1 chain with E156A
modifications: Oryzias latipes

What was measured:
Format in all cases: biochemical
Pro-Phe-Arg-MCA = experiment: Kinetic study with MCA-containing peptide substrate; details: substrate PFR-MCA
Z-Phe-Arg-MCA = experiment: as above; details: substrate Z-FR-MCA
[1] = tested on: Boc-Glu(OBzl)-Ala-Arg-MCA; experiment: as above; details: substrate Boc-E(OlBz)-AR-MCA
GD4K-βNA = experiment: EP activity and kinetic study with specific substrate GD4K-βNA; details: for kcat/Km: substrate GD4K-βna
Description: (A) Active recombinant EP proteases were assayed using a GD4K-βNA (SEQ ID NO: 6) substrate as a substrate. Bovine (Nvg), bovine EP protease available from Novagen; Bovine (Neb), bovine EP protease available from NEB. (B) Active recombinant EP proteases were assayed using various synthetic peptide substrates. (C) Active EP proteases were analyzed by gelatin zymography. (D) Fibronectin (4 μg) was incubated with active EPs (100 ng) at 37° C. for 12 h. (E) Laminin ((10 μg) was incubated with active recombinant EPs (100 ng) at 37° C. for 12 h. (F) Two μg of the control protein containing the D4K site (SEQ ID NO: 1) was incubated with active recombinant EPs (100 ng) at 37° C. for 1 h.
(A) The purity of purified recombinant Medaka EP-1 and EP-2 protease was assessed by SDS-PAGE. Lane 1, Medaka EP fusion protein; lane 2, Medaka EP protease treated with immobilized trypsin; lane 3, Medaka EP protease purified using a resource Q column. (B) The enzyme activities of EP proteases were determined at various pHs using GD4K-βNA (SEQ ID NO: 6) as a substrate. (C) Recombinant Medaka trypsinogen was incubated at 37° C. with EPs for 15, 30 and 45 min. After incubation, samples were analyzed by SDS-PAGE and visualized by CBB staining (upper panel). The relative amount of the active form of Medaka trypsin at each time point were calculated based on the results shown in the upper panel (lower panel). The results are presented as the means (±SD) of three separate experiments.
EP activity was routinely determined using the specific substrate Gly-Asp-Asp-Asp-Asp-Lys-β-naphthylamide (GD4K-βNA) (SEQ ID NO: 6) (Sigma) according to the method of Mikhailova and Rumsh (Mikhailova et al., FEBS Lett., 442:226-230 (1999)). Enzyme activity for various 4-methylcoumaryl-7-amide (MCA)-containing peptide substrates was determined by the method of Barrett (Barrett et al., J., Biochem. J., 187:909-912 (1980)). For kinetic studies, initial velocities, extrapolated from the plot of product versus time, were transformed into double-reciprocal plots (Lineweaver et al., J. Am. Chem. Soc., 56:658-663 (1934)). […]

[2] = tested on: Boc-Glu(OBzl)-Ala-Arg-MCA, Z-Phe-Arg-MCA, and Pro-Phe-Arg-MCA; experiment: Amidolytic activity for synthetic MCA-containing peptide substrates (panel)

Molecule	kcat/Km (Pro-Phe-Arg-MCA) [M⁻¹ s⁻¹]	kcat/Km (Z-Phe-Arg-MCA) [M⁻¹ s⁻¹]	kcat/Km [1] [M⁻¹ s⁻¹]	kcat/Km (GD4K-βNA) [M⁻¹ s⁻¹]	kcat/Km values compared with the mammalian proteases, smaller by ([2]; all MCA-containing synthetic substrates)	kcat/Km for GD4K-βNA compared with the wild-type enzyme (GD4K-βNA)	kcat/Km values for the MCA-containing substrates compared with the wild-type enzyme [2]
B1	233	483	567	21670	1-2 orders of magnitude		
B2	150	100	167	18330		retained a kcat/Km value comparable to the wild-type enzyme	lowered
